Experimental data reported in US12042530B2, “Target peptides for immunotherapy and diagnostics” (University of Virginia Patent Foundation, priority 2012, dated 2024).

Tested on: cultured melanocytes
Assay: HLA-A*0201-associated phosphopeptides from cultured melanocytes (mass spectrometry)
Design: species or system human; key: −: not detected; ++: 5-50 copies/cell; +++: 50-500 copies/cell
Conditions: not given

Substance | Copies/cell
AMAApSPHAV (AMAASPHAV; phosphoserine; SITE (1)..(9): One or more of the listed amino acids can be phosphorylated as set forth in the Tables; listed as Homo sapiens) [SEQ ID NO: 394] | −
AVVpSPPALHNA (AVVSPPALHNA; phosphoserine; SITE (1)..(11): One or more of the listed amino acids can be phosphorylated as set forth in the Tables; listed as Homo sapiens) [SEQ ID NO: 395] | −
GLLGpSPVRA (GLLGSPVRA; phosphoserine; SITE (1)..(9): One or more of the listed amino acids can be phosphorylated as set forth in the Tables; listed as Homo sapiens) [SEQ ID NO: 396] | −
ILKpSPEIQRA (ILKSPEIQRA; phosphoserine; SITE (1)..(10): One or more of the listed amino acids can be phosphorylated as set forth in the Tables; listed as Homo sapiens) [SEQ ID NO: 397] | −
IMDRtPEKL (IMDRTPEKL; phosphothreonine; SITE (1)..(9): One or more of the listed amino acids can be phosphorylated as set forth in the Tables; listed as Homo sapiens) [SEQ ID NO: 398] | −
KLApSPELERL (KLASPELERL; phosphoserine; SITE (1)..(10): One or more of the listed amino acids can be phosphorylated as set forth in the Tables; listed as Homo sapiens) [SEQ ID NO: 399] | −
KLFPDpTPLAL [SEQ ID NO: 443] | −
KLIDIVpSSQKV | −
KLLDFGSLpSNLQV (KLLDFGSLSNLQV; phosphoserine; SITE (1)..(13): One or more of the listed amino acids can be phosphorylated as set forth in the Tables; listed as Homo sapiens) [SEQ ID NO: 402] | −
KLLpSPSNEKL (KLLSPSNEKL; phosphoserine; SITE (1)..(10): One or more of the listed amino acids can be phosphorylated as set forth in the Tables; listed as Homo sapiens) [SEQ ID NO: 403] | −
KLMpSPKADVKL (KLMSPKADVKL; phosphoserine; SITE (1)..(11): One or more of the listed amino acids can be phosphorylated as set forth in the Tables; listed as Homo sapiens) [SEQ ID NO: 405] | −
LMFpSPVTSL (LMFSPVTSL; phosphoserine; SITE (1)..(9): One or more of the listed amino acids can be phosphorylated as set forth in the Tables; listed as Homo sapiens) [SEQ ID NO: 407] | −
RLDpSYVRSL [SEQ ID NO: 408] | ++ (5-50 copies/cell)
RLFpSKELRC (RLFSKELRC; phosphoserine; SITE (1)..(9): One or more of the listed amino acids can be phosphorylated as set forth in the Tables; listed as Homo sapiens) [SEQ ID NO: 409] | −
RLLpSPLSSA (RLLSPLSSA; phosphoserine; SITE (1)..(9): One or more of the listed amino acids can be phosphorylated as set forth in the Tables; listed as Homo sapiens) [SEQ ID NO: 410] | ++ (5-50 copies/cell)
RLQpSTSERL (RLQSTSERL; phosphoserine; SITE (1)..(9): One or more of the listed amino acids can be phosphorylated as set forth in the Tables; listed as Homo sapiens) [SEQ ID NO: 411] | −
RLSpSPLHFV (RLSSPLHFV; phosphoserine; SITE (1)..(9): One or more of the listed amino acids can be phosphorylated as set forth in the Tables; listed as Homo sapiens) [SEQ ID NO: 412] | +++ (50-500 copies/cell)
RQDpSTPGKVFL (RQDSTPGKVFL; phosphoserine; SITE (1)..(11): One or more of the listed amino acids can be phosphorylated as set forth in the Tables; listed as Homo sapiens) [SEQ ID NO: 413] | ++ (5-50 copies/cell)
RQIpSQDVKL (RQISQDVKL; phosphoserine; SITE (1)..(9): One or more of the listed amino acids can be phosphorylated as set forth in the Tables; listed as Homo sapiens) [SEQ ID NO: 414] | ++ (5-50 copies/cell)
RQLpSSGVSEI (RQLSSGVSEI; phosphoserine; SITE (1)..(10): One or more of the listed amino acids can be phosphorylated as set forth in the Tables; listed as Homo sapiens) [SEQ ID NO: 415] | +++ (50-500 copies/cell)
RTFpSPTYGL (RTFSPTYGL; phosphoserine; SITE (1)..(9): One or more of the listed amino acids can be phosphorylated as set forth in the Tables; listed as Homo sapiens) [SEQ ID NO: 457] | ++ (5-50 copies/cell)
RTLpSHISEA (RTLSHISEA; phosphoserine; SITE (1)..(9): One or more of the listed amino acids can be phosphorylated as set forth in the Tables; listed as Homo sapiens) [SEQ ID NO: 417] | −
RVApSPTSGV (RVASPTSGV; phosphoserine; SITE (1)..(9): One or more of the listed amino acids can be phosphorylated as set forth in the Tables; listed as Homo sapiens) [SEQ ID NO: 418] | +++ (50-500 copies/cell)
SLLTpSPPKA (SLLTSPPKA; phosphoserine; SITE (1)..(9): One or more of the listed amino acids can be phosphorylated as set forth in the Tables; listed as Homo sapiens) [SEQ ID NO: 419] | −
SMpTRSPPRV (SMTRSPPRV; phosphothreonine; SITE (1)..(9): One or more of the listed amino acids can be phosphorylated as set forth in the Tables; listed as Homo sapiens) [SEQ ID NO: 421] | +++ (50-500 copies/cell)
TLApSPSVFKST (TLASPSVFKST; phosphoserine; SITE (1)..(11): One or more of the listed amino acids can be phosphorylated as set forth in the Tables; listed as Homo sapiens) [SEQ ID NO: 422] | −
VLLpSPVPEL (VLLSPVPEL; phosphoserine; SITE (1)..(9): One or more of the listed amino acids can be phosphorylated as set forth in the Tables; listed as Homo sapiens) [SEQ ID NO: 424] | −
VMFRpTPLASV (VMFRTPLASV; phosphothreonine; SITE (1)..(10): One or more of the listed amino acids can be phosphorylated as set forth in the Tables; listed as Homo sapiens) [SEQ ID NO: 425] | −
VMIGpSPKKV (VMIGSPKKV; phosphoserine; SITE (1)..(9): One or more of the listed amino acids can be phosphorylated as set forth in the Tables; listed as Homo sapiens) [SEQ ID NO: 426] | −

Tested on: HLA-DR
Assay: HLA-DR-associated phosphopeptides on melanoma cells and EBV-transformed B cells
Design: species or system human; key: Melanoma and transformed B cells are specified by M and B, respectively.; Melanoma and transformed B cells are specified by M and B, respectively.; M/B: Melanoma (M) and/or Transformed B-Cells (B)
Conditions: Class II MHC (DRB1*0404, 0101 or DRB4*0103)

Substance | M/B (cells on which the Class II MHC phosphopeptide is presented)
466 (EPASPAASISRLSGEQVDGKG; SITE (1)..(21): One or more of the listed amino acids can be phosphorylated as set forth in the Tables; listed as Homo sapiens) [compound 466] | M/B
472 (APSTYAHLSPAK; SITE (1)..(12): One or more of the listed amino acids can be phosphorylated as set forth in the Tables; listed as Homo sapiens) [compound 472] | M/B
479 (SGGDDDWTHLSSKEVDPST; SITE (1)..(19): One or more of the listed amino acids can be phosphorylated as set forth in the Tables; listed as Homo sapiens) [compound 479] | M/B
516 (RSYSPDHRQK; SITE (1)..(10): One or more of the listed amino acids can be phosphorylated as set forth in the Tables; listed as Homo sapiens) [compound 516] | M/B
518 (FDKHTLGDSDNES; SITE (1)..(13): One or more of the listed amino acids can be phosphorylated as set forth in the Tables; listed as Homo sapiens) [compound 518] | M/B
